Paper PMC6571141
Results are given in words; binding and its absence hold for the method and conditions named. In cells and extracts the contact can be indirect. Some results given as binding are weak or reduced against the parent protein; the word gives no strength.

Chains of the proteins cited; added tags and fusions are not shown.
UniProt Q5VTD9: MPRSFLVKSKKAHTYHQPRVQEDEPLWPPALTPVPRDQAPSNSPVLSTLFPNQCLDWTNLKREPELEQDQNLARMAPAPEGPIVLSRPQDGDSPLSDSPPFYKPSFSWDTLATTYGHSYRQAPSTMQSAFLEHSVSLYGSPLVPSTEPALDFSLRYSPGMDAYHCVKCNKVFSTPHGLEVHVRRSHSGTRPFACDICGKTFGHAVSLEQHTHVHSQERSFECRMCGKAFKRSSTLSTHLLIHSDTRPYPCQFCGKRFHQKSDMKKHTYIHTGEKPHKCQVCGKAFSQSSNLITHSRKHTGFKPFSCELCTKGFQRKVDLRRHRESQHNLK
UniProt P01100: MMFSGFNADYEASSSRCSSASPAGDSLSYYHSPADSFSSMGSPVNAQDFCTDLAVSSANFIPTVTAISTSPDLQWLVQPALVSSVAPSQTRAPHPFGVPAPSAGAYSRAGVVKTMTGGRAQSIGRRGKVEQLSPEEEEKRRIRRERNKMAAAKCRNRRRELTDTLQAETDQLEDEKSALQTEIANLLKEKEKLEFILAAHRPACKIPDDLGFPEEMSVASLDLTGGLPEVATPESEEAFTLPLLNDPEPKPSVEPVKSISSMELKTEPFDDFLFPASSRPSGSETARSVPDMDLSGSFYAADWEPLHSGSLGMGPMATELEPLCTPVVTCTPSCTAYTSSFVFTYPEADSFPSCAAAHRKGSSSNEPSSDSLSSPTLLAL
UniProt P23769: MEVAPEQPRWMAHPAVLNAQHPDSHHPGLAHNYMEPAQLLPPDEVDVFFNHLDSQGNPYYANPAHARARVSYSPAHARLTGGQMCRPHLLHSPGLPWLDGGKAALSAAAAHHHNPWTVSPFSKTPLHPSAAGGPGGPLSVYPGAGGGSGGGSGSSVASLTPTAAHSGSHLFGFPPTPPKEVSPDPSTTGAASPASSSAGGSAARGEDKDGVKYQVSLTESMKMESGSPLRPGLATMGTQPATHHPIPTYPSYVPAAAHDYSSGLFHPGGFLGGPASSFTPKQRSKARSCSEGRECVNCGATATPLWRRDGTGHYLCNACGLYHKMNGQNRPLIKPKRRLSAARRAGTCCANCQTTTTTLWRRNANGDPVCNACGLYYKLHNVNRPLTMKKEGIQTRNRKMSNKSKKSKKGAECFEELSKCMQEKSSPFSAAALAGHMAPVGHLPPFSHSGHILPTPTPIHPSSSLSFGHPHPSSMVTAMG

Tests used:
Assay in all cases: co-IP; nuclear extracts of HDFs 48 hr after Dox induction of GATA2, GFI1B and FOS together; 5 ug of each antibody; immune complexes washed four times with lysis buffer; control IP with rabbit IgG; western blot
HA-tagged GFI1B (human) = HA-tagged GFI1B (human) (UniProt Q5VTD9)
FOS (human) = FOS (human) (UniProt P01100)
[1] = target: 3xFLAG-tagged GATA2 (human) (UniProt P23769)

3xFLAG-tagged GATA2 (from UniProt P23769 1-480)
binding (HA-tagged GFI1B (human)): binds | binding (FOS (human)): binds

FOS (from UniProt P01100 1-380)
binding [1]: binds
